Some of these results come from one statement about several compounds together.
Biological target: T1, V600E full-length B-Raf (Homo sapiens, UniProt P15056, V600E)
T1 construct: 1 μM FSBA-MEK and 20 nM V600E full-length B-Raf; made in house; host or cells: Sf9 insect cells (baculovirus)
Assay: B-Raf IC50 Assay Protocol (incorporation of radio labeled phosphate from [γ-33P]ATP into FSBA-modified wild-type MEK)
Format: biochemical
Details: 20 nM V600E full-length B-Raf, 4 μM ATP, 1 μM FSBA-MEK, 60-minute incubation at 22° C.

Sequences of proteins named here, by UniProt entry; tags and fusion partners are left off.
UniProt P15056, whole entry V600E: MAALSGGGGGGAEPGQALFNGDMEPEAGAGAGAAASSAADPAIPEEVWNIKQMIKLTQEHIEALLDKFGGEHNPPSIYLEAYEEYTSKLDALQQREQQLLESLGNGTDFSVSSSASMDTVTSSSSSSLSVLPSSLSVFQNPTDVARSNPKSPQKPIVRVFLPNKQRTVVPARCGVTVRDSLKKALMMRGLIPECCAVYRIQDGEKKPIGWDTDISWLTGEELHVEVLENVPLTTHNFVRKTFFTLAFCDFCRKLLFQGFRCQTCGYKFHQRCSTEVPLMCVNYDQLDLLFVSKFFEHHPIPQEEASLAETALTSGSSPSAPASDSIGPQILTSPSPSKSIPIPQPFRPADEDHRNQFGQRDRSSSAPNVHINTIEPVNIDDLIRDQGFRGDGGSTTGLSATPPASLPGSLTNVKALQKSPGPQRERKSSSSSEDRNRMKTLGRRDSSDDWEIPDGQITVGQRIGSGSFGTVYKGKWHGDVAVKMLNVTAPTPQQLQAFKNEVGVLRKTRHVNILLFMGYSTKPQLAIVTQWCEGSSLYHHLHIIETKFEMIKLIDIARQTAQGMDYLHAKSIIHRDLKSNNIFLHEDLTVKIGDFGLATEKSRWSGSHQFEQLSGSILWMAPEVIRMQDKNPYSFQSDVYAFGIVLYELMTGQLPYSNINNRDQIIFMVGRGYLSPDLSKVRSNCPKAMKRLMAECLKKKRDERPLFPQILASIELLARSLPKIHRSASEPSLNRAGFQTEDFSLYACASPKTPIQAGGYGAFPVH

CCCS(=O)(=O)Nc1ccc(F)c(C(=O)Nc2ccc(N)nc2)c1F [Example 1, N-(6-aminopyridin-3-yl)-2,6-difluoro-3-(propylsulfonamido)benzamide]
IC50: < 1000 nM

CCCS(=O)(=O)Nc1ccc(F)c(C(=O)Nc2cnc(N)c(Br)c2)c1F [Example 2, N-(6-amino-5-bromopyridin-3-yl)-2,6-difluoro-3-(propylsulfonamido)benzamide]
IC50: < 1000 nM

CCCS(=O)(=O)Nc1ccc(F)c(C(=O)Nc2cnc(N)c(-c3cccnc3)c2)c1F [Example 3, N-(2-amino-3,3′-bipyridin-5-yl)-2,6-difluoro-3-(propylsulfonamido)benzamide]
IC50: < 1000 nM

CCCS(=O)(=O)Nc1ccc(F)c(C(=O)Nc2cnc(N)c(-c3cnn(C)c3)c2)c1F [Example 4, N-(6-amino-5-(1-methyl-1H-pyrazol-4-yl)pyridin-3-yl)-2,6-difluoro-3-(propylsulfonamido)benzamide]
IC50: < 1000 nM

CCCS(=O)(=O)Nc1ccc(F)c(C(=O)Nc2ccc(NC(C)=O)nc2)c1F [Example 5, N-(6-acetamidopyridin-3-yl)-2,6-difluoro-3-(propylsulfonamido)benzamide]
IC50: < 1000 nM

CCCS(=O)(=O)Nc1ccc(F)c(C(=O)Nc2cnc(N)c(C#N)c2)c1F [Example 6]
IC50: < 1000 nM

CCCS(=O)(=O)Nc1ccc(F)c(C(=O)Nc2cnc(N)c(C)c2)c1F [Example 7, N-(6-amino-5-methylpyridin-3-yl)-2,6-difluoro-3-(propylsulfonamido)benzamide]
IC50: < 1000 nM

CCCS(=O)(=O)Nc1ccc(F)c(C(=O)Nc2ccc(Nc3ccccn3)nc2)c1F [Example 8, 2,6-difluoro-3-(propylsulfonamido)-N-(6-(pyridin-2-ylamino)pyridin-3-yl)benzamide]
IC50: < 1000 nM

CCCS(=O)(=O)Nc1ccc(F)c(C(=O)Nc2cnc(NC(C)=O)c(Br)c2)c1F [Example 9, N-(6-acetamido-5-bromopyridin-3-yl)-2,6-difluoro-3-(propylsulfonamido)benzamide]
IC50: < 1000 nM

CCCS(=O)(=O)Nc1ccc(F)c(C(=O)Nc2cnc(N)c(S(C)(=O)=O)c2)c1F [Example 10, N-(6-amino-5-(methylsulfonyl)pyridin-3-yl)-2,6-difluoro-3-(propylsulfonamido)benzamide]
IC50: < 1000 nM

CCCS(=O)(=O)Nc1ccc(F)c(C(=O)Nc2ccc(Nc3ccccc3)nc2)c1F [Example 11, 2,6-difluoro-N-(6-(phenylamino)pyridin-3-yl)-3-(propylsulfonamido)benzamide]
IC50: < 1000 nM

CCCS(=O)(=O)Nc1ccc(F)c(C(=O)Nc2ccc(Nc3ccc(F)cc3)nc2)c1F [Example 12, 2,6-difluoro-N-(6-(4-fluorophenylamino)pyridin-3-yl)-3-(propylsulfonamido)benzamide]
IC50: < 1000 nM

— patent US20110003859A1, “N- (6-AMINOPYRIDIN-3-YL) -3- (SULFONAMIDO) BENZAMIDE DERIVATIVES AS B-RAF INHIBITORS FOR THE TREATMENT OF CANCER” (Array Biopharma Inc., priority 2008, published 2011)
